Values from PubChem BioAssay AID602196 (INSERM, 2012).

Assay: 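Modifiers of cisplatin sensitivity in A549 cells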
Cells: human A549 lung cancer cells
Reagent: siRNA pair against human genes
Timing: 48 h transfection before cisplatin; time from cisplatin to read-out not stated
Conditions: cisplatin at a dose killing half of control-siRNA cells; exact dose and duration not given
Measured: 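Cisplatin cell death as a shift from the 50% death seen with control siRNA; siRNAs toxic or growth-blocking alone scored 0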
Direction: two-siRNA summed score (-2 to +2): higher = both siRNAs protect from cisplatin killing; -2 means both sensitise; mean protection from cisplatin (shift in death) and protection from cisplatin (shift in death), siRNA C and protection from cisplatin (shift in death), siRNA D: higher = protection from cisplatin killing
Active means: 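Each siRNA scores 0 if harmful alone by LDH or WST-1, otherwise +1 if it reduces and -1 if it increases cisplatin killing; a gene is active when both siRNAs agree (sum +2 or -2)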
Meaning of the calls: active = both siRNAs shift cisplatin killing the same way; inactive = no consistent shift, or siRNA harmful alone
The deposit covers about 23,000 reagents; below is a part drawn at random. 455 of all reagents (2%) were called active. 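Active includes both protection and sensitisation; some change values fall well beyond the stated -50 to +50 range.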 Reagent sequences are not shown. Not stated in the record: the amount of reagent.

target	two-siRNA summed score (-2 to +2)	mean protection from cisplatin (shift in death) (%)	protection from cisplatin (shift in death), siRNA C (%)	protection from cisplatin (shift in death), siRNA D (%)	Call
MUC5B (GeneID 727897)	0	17.1	5	29.3	inactive
LRP11 (GeneID 84918)	0	-0.9	-7	5.1	inactive
LIMS3 (GeneID 96626)	-1	-8.7	-4	-13.5	inactive
METTL1 (GeneID 4234)	-1	-7.6	-0.7	-14.4	inactive
EFTUD2 (GeneID 9343)	0	7.9	17.3	-1.5	inactive
MYO1H (GeneID 283446)	0	0.4	4.8	-4	inactive
LOC392486	0	15.1	18.7	11.5	inactive
LOC441574	0	0.9	-3.2	5.1	inactive
LOC441500	0	9.5	7.6	11.3	inactive
PTP4A2 (GeneID 8073)	0	-2.8	4.7	-10.3	inactive
CCNI (GeneID 10983)	0	8.4	2.7	14.1	inactive
SUFU (GeneID 51684)	0	-4.2	-16.8	8.4	inactive
ARL6IP1 (GeneID 23204)	0	9.3	14.3	4.3	inactive
HS3ST6 (GeneID 64711)	0	5.8	5.8	5.7	inactive
LOC152122	0	20.2	-5.9	46.3	inactive
LOC387765	1	6.1	7.7	4.6	inactive
PCDHGA12 (GeneID 26025)	2	20.9	20.8	21	active
SLURP1 (GeneID 57152)	0	12.5	10.8	14.1	inactive
BSN (GeneID 8927)	-2	-16	-15.5	-16.4	active
LOC391151	0	18.1	21.7	14.5	inactive
CAMK4 (GeneID 814)	2	17.3	22.1	12.4	active
MTA2 (GeneID 9219)	0	8.2	-2.2	18.5	inactive
LOC253264	1	15.2	15.7	14.8	inactive
MCF2L2 (GeneID 23101)	0	5.2	16	-5.6	inactive
OR10AG1 (GeneID 282770)	0	6.1	11.2	1	inactive
LOC440046	0	11.2	15.5	6.9	inactive
CD300LF (GeneID 146722)	1	8.8	25.8	-8.2	inactive
LRP8 (GeneID 7804)	0	-0.7	-4.1	2.7	inactive
DPPA2 (GeneID 151871)	-1	-13.3	-21	-5.6	inactive
CTSO (GeneID 1519)	1	2.1	-6.9	11	inactive
NFKBIE (GeneID 4794)	0	-16	-34.1	2.2	inactive
LOC255330	0	8	12.3	3.8	inactive
USP14 (GeneID 9097)	0	0.8	0.3	1.3	inactive
C12orf60 (GeneID 144608)	1	19.1	14.4	23.9	inactive
LOC401358	0	5.4	0.5	10.4	inactive
CHRNA7 (GeneID 1139)	0	-1.3	-5.8	3.3	inactive
TBC1D2B (GeneID 23102)	1	6.5	-11.4	24.4	inactive
EXOC3L2 (GeneID 90332)	-1	2	-13.4	17.4	inactive
BTBD6 (GeneID 90135)	1	18.7	14.1	23.3	inactive
NUP85 (GeneID 79902)	0	7.2	10.9	3.5	inactive
ERO1B (GeneID 56605)	0	6.6	5.2	7.9	inactive
PPY (GeneID 5539)	-1	-10.6	-32.4	11.2	inactive
LOC441874	0	7.9	7.7	8	inactive
CNIH3 (GeneID 149111)	0	8.8	3.2	14.4	inactive
RYR2 (GeneID 6262)	0	7.8	12.1	3.6	inactive
TMEM151A (GeneID 256472)	0	4.4	12.7	-3.8	inactive
B4GALT6 (GeneID 9331)	1	5.2	15.7	-5.2	inactive
ZNF417 (GeneID 147687)	0	-0.9	6.3	-8	inactive
TNPO1 (GeneID 3842)	-1	-18.3	-19.5	-17.1	inactive
KIAA1833	0	20.8	32.2	9.5	inactive
OR6Q1 (GeneID 219952)	0	-3.1	-12.8	6.5	inactive
VPS16 (GeneID 64601)	0	-0.6	9.7	-10.9	inactive
CREB3 (GeneID 10488)	0	4.7	-7.1	16.4	inactive
DELE1 (GeneID 9812)	1	14.6	12.5	16.7	inactive
CFAP53 (GeneID 220136)	0	-1	-2	0	inactive
ZNF708 (GeneID 7562)	0	-1.7	-2.5	-0.9	inactive
GPR137B (GeneID 7107)	0	-7.2	6.6	-21	inactive
KLHDC1 (GeneID 122773)	0	7	6.1	7.9	inactive
LOC345651	0	3.7	-0.1	7.6	inactive
TACO1 (GeneID 51204)	0	0.2	0.8	-0.5	inactive
PITPNM3 (GeneID 83394)	0	2.2	15.9	-11.4	inactive
CCDC24 (GeneID 149473)	0	0.5	-1.1	2.2	inactive
LHFPL1 (GeneID 340596)	0	9.1	10.7	7.5	inactive
LIME1 (GeneID 54923)	0	12.7	11.2	14.2	inactive
H2BC26 (GeneID 128312)	0	12.5	12.4	12.6	inactive
LOC441908	1	10.8	15	6.6	inactive
TNNT1 (GeneID 7138)	0	8.9	-15.4	33.1	inactive
FAM241A (GeneID 132720)	0	7.8	2.2	13.5	inactive
NXF1 (GeneID 10482)	0	4.4	0.7	8.1	inactive
L3MBTL1 (GeneID 26013)	0	2.4	-0.3	5.2	inactive
PTPRE (GeneID 5791)	0	-3.2	-8	1.5	inactive
BPHL (GeneID 670)	0	2.2	15.6	-11.1	inactive
EGFR (GeneID 1956)	0	7.8	14.3	1.3	inactive
